# Test results taken from PubChem BioAssay AID445 (National Center for Advancing Translational Sciences (NCATS), 2006).
# The other results are listed elsewhere or left out. These are further read-outs of the screen, such as a control signal, another cell line or another target. No call is given for them. The list favours compounds with an active or inconclusive main result. Potencies come from curve fits of mixed quality, noted in brackets.
# Test: IkB Signaling
# Settings: ABC-DLBCL IkBa-CBG/CBR dual luciferase ratio (green luciferase fused to IkBa over red control in OCI-Ly3 lymphoma cells), 4 h
# In short: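 In this assay, an IκBα–CBG68 fusion accumulates when IKK-driven degradation is blocked; native CBR normalizes for cell number. OCI-Ly3 cells were treated 4 h with compound and doxycycline, then green and red light read after Chroma-Glo addition.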
# [1] = measured here: control luc red channel unless noted
compound,measurement,setting,value
COc1ccc(NC(=O)c2cc(Cl)ccc2NC(=O)c2ccco2)c(OC)c1,AC50,[1],"12.6 µM [falling, partial curve]"
COc1ccc(-c2noc(N3CCC(C(=O)Nc4cccc(C)c4C)CC3)n2)cc1,AC50,[1],"0.0501 µM [falling, full curve, poor fit]"
CCOc1cc(CNC(=O)c2cc(-c3ccccc3)n[nH]2)cc(OCC)c1OCC,AC50,[1],"10 µM [falling, single point]"
COc1ccc(CCNC(=O)c2cnn(-c3ccc(F)cc3)c2C2CCN(C(=O)OC(C)(C)C)CC2)cc1OC,AC50,[1],"25.1 µM [falling, partial curve]"
CCOc1cc(C(c2c(C)[nH]n(-c3ccccc3)c2=O)c2c(C)[nH]n(-c3ccccc3)c2=O)ccc1O,AC50,[1],"25.1 µM [rising, partial curve] [measured here: IkB-luc green channel]"
CC(C)OC(=O)CSc1nnc(-c2ccc(Cl)cc2Cl)o1,AC50,[1],"39.8 µM [falling, single point]"
CC(Oc1ccccc1)C(=O)Nc1ccc(C(=O)OCc2cc(=O)n3nc(C(C)C)sc3n2)cc1 (configuration not stated),AC50,[1],"20 µM [falling, partial curve]"
COC(=O)c1ccccc1NC(=O)CN(C)S(=O)(=O)c1ccc(OC)c(C)c1,AC50,[1],"20 µM [falling, partial curve]"
COc1ccc(C(=O)Nc2ccc(-c3nc4ncccc4o3)cc2C)cc1Br,AC50,[1],"7.94 µM [falling, partial curve]"
CCn1c(=O)c2cc(C(=O)Nc3cccc(C(F)(F)F)c3)sc2c2ccccc21,AC50,[1],"1.26 µM [falling, full curve]"
COc1ccc(NC(=O)c2c(NCc3ccc(C)o3)sc3c2CCCCC3)c(OC)c1,AC50,[1],"31.6 µM [falling, single point]"
Cc1nc2cc(NC(=O)NCCC3=CCCCC3)ccc2o1,AC50,[1],"20 µM [falling, partial curve]"
CCOC(=O)C1CCCN(C2CC(=O)N(c3cccc(C(F)(F)F)c3)C2=O)C1 (configuration not stated),AC50,[1],"31.6 µM [falling, partial curve]"
COc1ccc(-n2c(/C=C/c3cccc4ccccc34)nc3ccccc3c2=O)cc1OC,AC50,[1],"6.31 µM [falling, partial curve, poor fit]"
COc1ccc(N2C(N)=C(C#N)C(c3cccnc3)C3=C2CC(C)(C)CC3=O)cc1 (configuration not stated),AC50,[1],"39.8 µM [rising, single point] [measured here: IkB-luc green channel]"
CCn1cc(C(=O)NCCc2ccc(Cl)cc2)c(=O)c2cc(S(=O)(=O)N(C)C3CCCCC3)ccc21,AC50,[1],"12.6 µM [falling, partial curve]"
COc1ccc(Cn2c(C(=O)O)c(CNCc3ccc(OC)cc3OC)c3ccc(C)cc32)cc1,AC50,[1],"12.6 µM [falling, partial curve]"
CCc1ccc2oc(-c3cc(N=Cc4cccc(OC)c4O)ccc3O)nc2c1,AC50,[1],"31.6 µM [falling, single point]"
COc1ccc(CCCc2nnc(SCC(=O)Nc3cc(F)ccc3C)o2)cc1,AC50,[1],"25.1 µM [falling, partial curve]"
CCOc1ccc(CNC(=O)c2ccc3c(Cl)c4c(nc3c2)CCCC4)cc1,AC50,[1],"5.01 µM [falling, partial curve]"
CN(C(=O)CSc1nc2ccc(NC(=O)c3cccc(F)c3)cc2s1)c1ccccc1,AC50,[1],"12.6 µM [falling, partial curve]"
COc1cc(Cl)c(C)cc1NC(=O)CC1Oc2ccccc2NC1=O (configuration not stated),AC50,[1],"31.6 µM [falling, partial curve, poor fit]"
CCOC(=O)c1c(NC(C)=O)c2c3c(sc2n1Cc1c(C)cc(C)cc1C)CCCC3,AC50,[1],"39.8 µM [falling, single point]"
Cc1c(Cl)cccc1NC(=O)c1oc2ccc(S(=O)(=O)N3CCCCCC3)cc2c1C,AC50,[1],"10 µM [falling, single point]"
O=C(Nc1cccc(F)c1)c1ccc2oc(=O)n(Cc3ccccc3)c2c1,AC50,[1],"3.16 µM [falling, full curve, poor fit]"
CCN1CCN(c2nc(C)nc3c2sc(=S)n3C)CC1,AC50,[1],"3.16 µM [rising, full curve, poor fit]"
COc1cccc(OC)c1C(=O)Nc1ccc(-c2nc3ncccc3o2)cc1,AC50,[1],"5.01 µM [rising, partial curve]"
O=C(Nc1nc2ccccc2s1)C1CCCN1S(=O)(=O)c1ccc(Cl)cc1 (configuration not stated),AC50,[1],"15.8 µM [falling, partial curve]"
Cc1cccc(N(CC(=O)NCCc2ccccc2)S(=O)(=O)c2ccccc2)c1C,AC50,[1],"20 µM [falling, partial curve]"
COc1ccc(CCNC(=O)c2cc3c(=O)n4cccc(C)c4nc3n2C)cc1,AC50,[1],"12.6 µM [falling, partial curve, poor fit]"
COc1ccc2c(C)c(CCC(=O)NCc3cccc(Cl)c3)c(=O)oc2c1,AC50,[1],"31.6 µM [falling, single point]"
Cc1cccc(CSCCNC(=O)C2CCN(S(=O)(=O)Cc3ccccc3)CC2)c1,AC50,[1],"25.1 µM [falling, single point]"
CCCOC(=O)c1ccc(OCC(O)Cn2c(C)nc3ccccc32)cc1 (configuration not stated),AC50,[1],"15.8 µM [falling, partial curve]"
COc1ccc(NC(=O)CC2Oc3ccc(C)cc3NC2=O)cc1Cl (configuration not stated),AC50,[1],"3.98 µM [rising, full curve]"
O=C(c1cccs1)c1no[n+]([O-])c1C(=O)c1cccs1,AC50,measured here: IkB-luc green channel,"3.98 µM [rising, partial curve]"
same,AC50,measured here: control luc red channel,"15.8 µM [falling, partial curve]"
COc1ccc(N(CC(O)Cn2nnc3ccccc32)S(=O)(=O)c2ccc(C)cc2)cc1 (configuration not stated),AC50,[1],"31.6 µM [falling, single point]"
Cc1ccc(-n2nc(C(=O)N3CCN(c4cccc(C(F)(F)F)c4)CC3)c(=O)n(C)c2=O)cc1,AC50,[1],"12.6 µM [falling, partial curve]"
Cc1ccc(CNc2ccc(-c3nc(C(C)C)no3)cc2[N+](=O)[O-])cc1,AC50,[1],"1.58 µM [rising, full curve]"
Cc1ccc(C)c(N2CCN(S(=O)(=O)c3ccc4c(c3)CCC(=O)N4)CC2)c1,AC50,[1],"15.8 µM [falling, partial curve]"
Cc1cc(C)c2nc(N3CCCC(C(=O)NCc4cccc(Cl)c4)C3)sc2c1 (configuration not stated),AC50,[1],"7.94 µM [falling, partial curve]"
CC(C)CN(CC(C)C)C(=O)C1CCCN(S(=O)(=O)c2ccc3c(c2)oc(=O)n3C)C1 (configuration not stated),AC50,[1],"15.8 µM [falling, partial curve]"
COc1cccc(NC(=O)c2nn(-c3ccc(C)cc3)c(=O)n(C)c2=O)c1,AC50,[1],"1.58 µM [falling, partial curve]"
CCOc1ccc(C(=O)Nc2cc(NC(=O)c3ccco3)ccc2OC)cc1Br,AC50,[1],"2 µM [rising, full curve]"
COc1ccc(-c2nc3cc(NC(=O)Cc4ccc(Cl)cc4)ccc3o2)cc1OC,AC50,[1],"25.1 µM [falling, single point]"
Cc1ccsc1CCN1C(=O)N(c2ccccc2)C(=O)C1CC(=O)Nc1ccc(F)cc1 (configuration not stated),AC50,[1],"25.1 µM [falling, single point]"
COc1ccc(CCC(=O)NCc2ccc3c(c2)CCN3C(=O)c2ccc(F)cc2)cc1,AC50,[1],"7.94 µM [rising, single point]"
CCOc1cccc2cc(-c3nnc(-c4ccccc4)o3)c(=O)oc12,AC50,[1],"0.0398 µM [falling, full curve]"
Cc1cccc(C)c1NC(=O)c1ccc2c(c1)N(Cc1cccc(Cl)c1)C(=O)c1ccccc1S2=O (configuration not stated),AC50,[1],"15.8 µM [falling, single point]"
CC(C)CC(=O)Nc1nnc(S(=O)(=O)N2CCCCCC2)s1,AC50,[1],"1.58 µM [rising, partial curve]"
Cc1ccc(C(=O)N(Cc2sccc2C)C2CCS(=O)(=O)C2)cc1 (configuration not stated),AC50,[1],"3.16 µM [rising, partial curve, poor fit]"
COc1ccc(OC)c(-n2nnc3c(sc4nc(C)c(Br)c(C)c43)c2=O)c1,AC50,[1],"10 µM [falling, partial curve]"
COc1ccc(Cl)cc1NC(=O)c1cc(C)nc2c1c(C)nn2-c1ccccc1,AC50,[1],"10 µM [falling, partial curve, poor fit]"
Cc1cccc(C(=O)Nc2cc3c(cc2N2CCCCC2)n(C)c(=O)c(=O)n3C)c1,AC50,[1],"3.98 µM [rising, partial curve]"
O=C(CC1N=C2c3ccccc3N=C(SCc3ccccc3F)N2C1=O)NCCc1ccccc1 (configuration not stated),AC50,[1],"39.8 µM [falling, single point]"
CN(C)c1ccc(CN(CC2CCCO2)C(=O)COc2ccccc2Cl)cc1 (configuration not stated),AC50,[1],"25.1 µM [falling, partial curve]"
CC(C)OCCCNc1ncnc2c1[nH]c1ccc(F)cc12,AC50,[1],"10 µM [falling, partial curve]"
N#Cc1ccc(-c2cccs2)nc1SCc1c(F)cccc1Cl,AC50,[1],"2.51 µM [rising, full curve]"
Cc1ccccc1C(=O)N(Cc1ccc(N(C)C)cc1)Cc1ccco1,AC50,[1],"31.6 µM [falling, single point]"
CCCN(c1ccc(C(C)C)cc1)S(=O)(=O)c1ccc2c(c1)CCN2C(=O)CC,AC50,[1],"39.8 µM [falling, single point]"
O=C(c1cccs1)N(Cc1cccnc1)c1nc2c(Cl)cccc2s1,AC50,[1],"25.1 µM [falling, single point]"
O=C(c1ccc(C(F)(F)F)cc1)N1CCC(c2noc(-c3ccc(S(=O)(=O)N4CCCC4)cc3)n2)CC1,AC50,[1],"3.98 µM [falling, full curve]"

# Part of the list above, tab-delimited:
compound	measurement	setting	value
COc1ccc(OC)c(-n2nnc3c(sc4nc(C)c(Br)c(C)c43)c2=O)c1	AC50	[1]	10 µM [falling, partial curve]
COc1ccc(Cl)cc1NC(=O)c1cc(C)nc2c1c(C)nn2-c1ccccc1	AC50	[1]	10 µM [falling, partial curve, poor fit]
Cc1cccc(C(=O)Nc2cc3c(cc2N2CCCCC2)n(C)c(=O)c(=O)n3C)c1	AC50	[1]	3.98 µM [rising, partial curve]

# Reformatted with tabs: entries from further up.
compound	measurement	setting	value
COc1ccc(-c2noc(N3CCC(C(=O)Nc4cccc(C)c4C)CC3)n2)cc1	AC50	[1]	0.0501 µM [falling, full curve, poor fit]
CCOc1cc(CNC(=O)c2cc(-c3ccccc3)n[nH]2)cc(OCC)c1OCC	AC50	[1]	10 µM [falling, single point]
